Results: patent US12516015B2 (AMALIVE LIMITED, priority 2009, dated 2026)
Where two headings read alike, the source gives them in different places.

Legend:
[1] = DVS; for water uptake: 0-90% RH
Procedure: The sample was then dried by maintaining a 0% humidity environment until no further weight change was recorded.

[2] = 37° C., paddle speed 150 rpm
[3] = for overall stability characterization of the form: conclusion from stability studies
[4] = for Main Peak % Peak Area: HPLC
[5] = 100% oxygen environment; for degradation by NMR and IR: 14 days
[6] = UV radiation
[7] = water slurry
[8] = 3 tons of force for about 90 minutes
[9] = 120° C. ambient pressure, day 14, peak at retention time 6.763-6.766 min
[10] = 120° C. ambient pressure, day 14, peak at retention time 7.569-7.583 min
[11] = 120° C. ambient pressure, day 14

Structure (SMILES): NCCC[C@H](N)C(=O)O.O=C(O)Cc1ccccc1 [Form I, L-ornithine phenyl acetate]
- hygroscopicity characterization [1]: non-hygroscopic
- stability over range of humidity [1]: stable over a wide range of humidity
- water uptake [1]: about 0.2 % by weight
- Calculated Intrinsic Dissolution Rates ([2]; pH 1.0): 0.41 mg/cm^2/s
- Calculated Intrinsic Dissolution Rates ([2]; pH 4.5): 0.44 mg/cm^2/s
- Calculated Intrinsic Dissolution Rates ([2]; pH 6.7): 0.37 mg/cm^2/s
- phase change ([3]; 40° C./75% RH, 7 days): transformation to Form II occurred
- overall stability characterization of the form [3]: metastable
- Results: chemical degradation ([4]; 80° C., no vacuum, 7 days): no degradation
- Results: physical form ([4]; 80° C., no vacuum, 7 days): Form II
- Results: chemical degradation ([4]; 80° C., no vacuum, 14 days): no degradation
- Results: physical form ([4]; 80° C., no vacuum, 14 days): Form II
- Results: chemical degradation ([4]; 80° C., vacuum, 7 days): no degradation
- Results: physical form ([4]; 80° C., vacuum, 7 days): Form II
- Results: chemical degradation ([4]; 80° C., vacuum, 14 days): no degradation
- Results: physical form ([4]; 80° C., vacuum, 14 days): Form II
- Degradation/Impuirty Peak(s) % Peak Area [4, 9]: 3.948%
- Degradation/Impuirty Peak(s) % Peak Area [4, 10]: 42.525%
- Degradation/Impuirty Peak(s) % Peak Area ([4]; 120° C. ambient pressure, day 14, peak at retention time 9.707 min): 3.628%
- Results: API remaining ([4]; 120° C., no vacuum, 7 days): > 96 % API
- Results: physical form ([4]; 120° C., no vacuum, 7 days): Form II
- Results: API remaining ([4]; 120° C., no vacuum, 14 days): 37 % API
- Results: physical form ([4]; 120° C., no vacuum, 14 days): Form II
- Results: API remaining ([4]; 120° C., vacuum, 7 days): > 99.9 % API
- Results: physical form ([4]; 120° C., vacuum, 7 days): Form II
- Results: API remaining ([4]; 120° C., vacuum, 14 days): > 96 % API
- Results: physical form ([4]; 120° C., vacuum, 14 days): Form II
- chemical degradation ([4]; 120° C., without a vacuum): substantial chemical degradation
- Main Peak % Peak Area [4, 11]: 37.826%
- degradation by NMR and IR [5]: no signs of degradation
- degradation by NMR and IR ([6]; 14 days): no degradation
- physical form conversion ([7]; pH 1.0, 4.0, 7.0, 10.0, 13.2, all samples, 7 or 14 days): converted to Form II
- degradation by NMR and IR ([7]; varied pHs, 14 days): did not degrade
- density after compression [8]: 1.197 kg/m^3

Structure (SMILES): NCCC[C@H](N)C(=O)O.O=C(O)Cc1ccccc1 [Form II, L-ornithine phenyl acetate]
- hygroscopicity characterization [1]: non-hygroscopic
- stability over range of humidity [1]: stable over a wide range of humidity
- water uptake [1]: about 0.3 % by weight
- Calculated Intrinsic Dissolution Rates ([2]; pH 1.0): 0.26 mg/cm^2/s
- Calculated Intrinsic Dissolution Rates ([2]; pH 4.5): 0.34 mg/cm^2/s
- Calculated Intrinsic Dissolution Rates ([2]; pH 6.7): 0.62 mg/cm^2/s
- phase change ([3]; 40° C./75% RH, 7 days): failed to produce an observable phase change
- overall stability characterization of the form [3]: stable
- Results: chemical degradation ([4]; 80° C., no vacuum, 7 days): no degradation
- Results: physical form ([4]; 80° C., no vacuum, 7 days): Form II
- Results: chemical degradation ([4]; 80° C., no vacuum, 14 days): no degradation
- Results: physical form ([4]; 80° C., no vacuum, 14 days): Form II
- Results: chemical degradation ([4]; 80° C., vacuum, 7 days): no degradation
- Results: physical form ([4]; 80° C., vacuum, 7 days): Form II
- Results: chemical degradation ([4]; 80° C., vacuum, 14 days): no degradation
- Results: physical form ([4]; 80° C., vacuum, 14 days): Form II
- Results: API remaining ([4]; 120° C., no vacuum, 7 days): 98.6 % API
- Results: physical form ([4]; 120° C., no vacuum, 7 days): Form II
- Results: API remaining ([4]; 120° C., no vacuum, 14 days): > 95 % API
- Results: physical form ([4]; 120° C., no vacuum, 14 days): Form II
- Results: API remaining ([4]; 120° C., vacuum, 7 days): 98.7 % API
- Results: physical form ([4]; 120° C., vacuum, 7 days): Form II
- Results: API remaining ([4]; 120° C., vacuum, 14 days): > 95 % API
- Results: physical form ([4]; 120° C., vacuum, 14 days): Form II
- chemical degradation at elevated temperatures ([4]; all trials): did not chemically degrade
- physical stability at elevated temperatures ([4]; all trials: 80° or 120° C., with or without vacuum, 7 or 14 days): stable
- degradation by NMR and IR [5]: no signs of degradation
- degradation by NMR and IR ([6]; 14 days): no degradation
- degradation by NMR and IR ([7]; varied pHs, 14 days): did not degrade
- density after compression [8]: 1.001 kg/m^3
- form transition on compression [8]: did not exhibit a transition

Structure (SMILES): NCCC[C@H](N)C(=O)O.O=C(O)Cc1ccccc1 [Form III, L-ornithine phenyl acetate]
- hygroscopicity characterization [1]: non-hygroscopic
- stability over range of humidity [1]: stable over a wide range of humidity
- water uptake [1]: about 2.0 % by weight
- Calculated Intrinsic Dissolution Rates ([2]; pH 1.0): 0.49 mg/cm^2/s
- Calculated Intrinsic Dissolution Rates ([2]; pH 4.5): 0.44 mg/cm^2/s
- Calculated Intrinsic Dissolution Rates ([2]; pH 6.7): 0.45 mg/cm^2/s
- phase change ([3]; 40° C./75% RH, 7 days): transformation to Form II occurred
- overall stability characterization of the form [3]: most likely metastable
- Results: chemical degradation ([4]; 80° C., no vacuum, 7 days): no degradation
- Results: physical form ([4]; 80° C., no vacuum, 7 days): Form III
- Results: chemical degradation ([4]; 80° C., no vacuum, 14 days): no degradation
- Results: physical form ([4]; 80° C., no vacuum, 14 days): Form III
- Degradation/Impuirty Peak(s) % Peak Area ([4]; 120° C. ambient pressure, day 7, peak at retention time 6.763 min): 6.103%
- Degradation/Impuirty Peak(s) % Peak Area ([4]; 120° C. ambient pressure, day 7, peak at retention time 7.582 min): 45.161%
- Degradation/Impuirty Peak(s) % Peak Area [4, 9]: 5.975%
- Degradation/Impuirty Peak(s) % Peak Area [4, 10]: 56.459%
- Degradation/Impuirty Peak(s) % Peak Area ([4]; 120° C. under vacuum (ca. 600 psi), day 7, peak at retention time 7.598 min): 9.389%
- Degradation/Impuirty Peak(s) % Peak Area ([4]; 120° C. under vacuum (ca. 600 psi), day 14, peak at retention time 7.555 min): 11.500%
- Results: API remaining ([4]; 120° C., no vacuum, 7 days): < 30 % API
- Results: physical form ([4]; 120° C., no vacuum, 7 days): Form II
- Results: API remaining ([4]; 120° C., no vacuum, 14 days): < 30 % API
- Results: physical form ([4]; 120° C., no vacuum, 14 days): Form II
- chemical degradation ([4]; 120° C., under vacuum): greater chemical degradation compared to Forms I and II
- physical form transition ([4]; 120° C., under vacuum): does not transition to Form II
- Results: API remaining ([4]; 120° C., vacuum, 7 days): > 95 % API
- Results: physical form ([4]; 120° C., vacuum, 7 days): Form III
- Results: API remaining ([4]; 120° C., vacuum, 14 days): 88.8 % API
- Results: physical form ([4]; 120° C., vacuum, 14 days): Form III
- chemical degradation ([4]; 120° C., without a vacuum): substantial chemical degradation
- physical form transition ([4]; 120° C., without a vacuum): converts to Form II
- Main Peak % Peak Area ([4]; 120° C. ambient pressure, day 7): 35.786%
- Main Peak % Peak Area [4, 11]: 30.394%
- Main Peak % Peak Area ([4]; 120° C. under vacuum (ca. 600 psi), day 7): 88.885%
- Main Peak % Peak Area ([4]; 120° C. under vacuum (ca. 600 psi), day 14): 87.389%
- degradation by IR ([5]; 7 days): no significant degradation
- degradation by NMR and IR ([6]; 7 days): no degradation
- physical form conversion by IR ([7]; varied pHs, 7-day test): converted to Form II
- HPLC purity after storage ([7]; varied pHs, 7 days): ≥ 95%
- degradation by NMR and IR ([7]; varied pHs, 7 days): no degradation
- density after compression [8]: 1.078 kg/m^3
- form transition on compression [8]: did not exhibit a transition

Structure (SMILES): NCCC[C@H](N)C(=O)O.O=C(O)Cc1ccccc1 [Form V, L-ornithine phenyl acetate]
- hygroscopicity characterization [1]: non-hygroscopic
- stability over range of humidity [1]: not stable over a wide range of humidity
- water uptake [1]: about 0.75 % by weight
- chemical composition ([3]; 40° C./75% RH, 7 days): chemical composition was unchanged
- phase change ([3]; 40° C./75% RH, 7 days): transformation to Form II occurred
- overall stability characterization of the form [3]: most likely metastable
